In one data set the test system is odor evaluation panel. Kind of data set: Odor evaluation panel rating of odorants by Rate-All-That-Apply (RATA) method with 55-word odor lexicon, plus intensity and pleasantness. More on the design: species or system human. The conditions noted are these: for Floral: mean panelist score for odor label floral (RATA); for Fruity: mean panelist score for odor label fruity (RATA); for Spicy: mean panelist score for odor label spicy (RATA); for Sweet: mean panelist score for odor label sweet (RATA); for Pleasantness: mean panelist score for odor pleasantness.

Data set [1] is described as follows: Evaluation by trained and/or certified flavor or fragrance chemists or master perfumers; categorization by commercial prospect. As to conditions: for Rating (category of commercial prospect): evaluation by trained flavor or fragrance chemists or master perfumers; for Rating: category of commercial prospect, (A) highest > (B) > (C) > (D) lowest, (E) requires further study.

`Cc1cc(O)cc(C)c1C=O` [Compound 575, 4-hydroxy-2,6-dimethylbenzaldehyde]: in the data set on odor evaluation panel, the Floral stood at 0.125, the Fruity stood at 0.219, the Spicy came out at 0.094 and the Sweet turned out to be 0.594. For the same molecule, in the data set with odor evaluation panel, the Pleasantness came to 4.397. For the same molecule, the “Rating (category of commercial prospect)” value in data set [1] was “(D)”.

As for `C#CCCCO` [Compound 777, pent-4-yn-1-ol], in the data set with odor evaluation panel, the Floral is on record as 0, the Fruity stood at 0, the Spicy was 0.219 and the Sweet came out at 0.156. Further, in the data set on odor evaluation panel, the Pleasantness worked out at 3.984. In data set [1], the “Rating (category of commercial prospect)” value is reported as “(B)”.

As for `CN(C)CC[C@H](O)c1cccs1` [Compound 143, (1S)-3-(dimethylamino)-1-thiophen-2-ylpropan-1-ol], in the data set on odor evaluation panel, the Floral is 0.182, the Fruity is given as 0.424, the Spicy is 0.03 and the Sweet was 0.848. For the same molecule, in the data set with odor evaluation panel, the Pleasantness is on record as 4.852. In addition, the Rating result in data set [1] is “(D)”.

In the case of `CCC1=NCCO1` [Compound 660, 2-ethyl-4,5-dihydro-1,3-oxazole], in the data set with odor evaluation panel, the Floral is 0.118, the Fruity came to 0.059, the Spicy came out at 0.206 and the Sweet came out at 0.588. Further, the Pleasantness in the data set with odor evaluation panel is 5.035. The “Rating (category of commercial prospect)” value in data set [1] is “(A)”.

`COC(C)(C)CC(C)=O` [Compound 465, 4-methoxy-4-methylpentan-2-one]: in the data set with odor evaluation panel, the Floral is on record as 0.719, the Fruity was 0.562, the Spicy worked out at 0.031 and the Sweet is 1.062. Besides, the Pleasantness in the data set on odor evaluation panel came to 4.906. Also, the Rating result in data set [1] was “(D)”.

In the case of `CCO/C=C/C(=O)OCC` [Compound 679, ethyl (E)-3-ethoxyprop-2-enoate], in the data set on odor evaluation panel, the Floral is recorded as 0.906, the Fruity was 2.562, the Spicy is on record as 0 and the Sweet was determined as 1.781. Moreover, the Pleasantness with odor evaluation panel is 6.528. Further, in data set [1], the “Rating (category of commercial prospect)” value is given as “(B)”.

For `CCCCC(O)CCCC` [Compound 693, nonan-5-ol], in the data set with odor evaluation panel, the Floral was determined as 0.472, the Fruity is listed as 2, the Spicy came to 0.194 and the Sweet was determined as 1.5. Besides, the “Rating (category of commercial prospect)” value in data set [1] is listed as “(B)”.

In the case of `CCCC(CCC)(C(=O)OCC)C(=O)OCC` [Compound 100, diethyl 2,2-dipropylpropanedioate], in the data set on odor evaluation panel, the Floral amounted to 0.312, the Fruity came to 1.562, the Spicy came out at 0 and the Sweet worked out at 1.062. In addition, the Pleasantness in the data set with odor evaluation panel is listed as 6.344. In addition, the Rating entry in data set [1] is “(A)”.

Take `CCOC(=O)C1CCCCN1C(=O)OC(C)(C)C` (stereo not drawn) [Compound 295, 1-O-tert-butyl 2-O-ethyl piperidine-1,2-dicarboxylate]: in the data set on odor evaluation panel, the Floral is given as 0.765, the Fruity amounted to 1.706, the Spicy is on record as 0.235 and the Sweet turned out to be 1.971. In addition, the Pleasantness with odor evaluation panel was 6.365. The Rating result in data set [1] is reported as “(B)”.

Take `CCOC(=O)c1cnoc1C` [Compound 50, ethyl 5-methyl-1,2-oxazole-4-carboxylate]: in the data set with odor evaluation panel, the Floral was 0.485, the Fruity amounted to 1.394, the Spicy was 0.121 and the Sweet came to 1.909. The Pleasantness in the data set with odor evaluation panel is on record as 6.527. Also, the Rating result in data set [1] was “(A)”.

As to `c1ccn2ccnc2c1` [Compound 230, imidazo[1,2-a]pyridine], in the data set on odor evaluation panel, the Floral is recorded as 0, the Fruity was determined as 0.111, the Spicy is 0.278 and the Sweet is 0.139. Moreover, the Rating entry in data set [1] is “(D)”.

Consider `COC1(OC)CCCCC1` [Compound 591, 1,1-dimethoxycyclohexane], for which, in the data set with odor evaluation panel, the Floral is 0.4, the Fruity worked out at 0.833, the Spicy came out at 0 and the Sweet was found to be 1.333. Further, the Pleasantness with odor evaluation panel was determined as 6.12. Moreover, in data set [1], the “Rating (category of commercial prospect)” value is listed as “(D)”.

Consider `O=C(CO)OCc1ccccc1` [Compound 82, benzyl 2-hydroxyacetate], for which, in the data set on odor evaluation panel, the Floral is reported as 0.194, the Fruity is recorded as 0.667, the Spicy is recorded as 0.056 and the Sweet came to 0.667. Besides, the Rating entry in data set [1] was “(C)”.

Consider `Nc1ccc(S)cc1` [Compound 179, 4-aminobenzenethiol], for which, in the data set on odor evaluation panel, the Floral is listed as 0, the Fruity is 0.094, the Spicy is given as 0.031 and the Sweet turned out to be 0.125. Also, the Pleasantness in the data set on odor evaluation panel is on record as 4.991. In addition, in data set [1], the Rating entry is given as “(D)”.

On to `OC(c1ccccc1)C1CC1` (stereo not drawn) [Compound 545, cyclopropyl(phenyl)methanol], for which, in the data set on odor evaluation panel, the Floral was 0.719, the Fruity turned out to be 0.156, the Spicy was 0.438 and the Sweet is 1.406. Moreover, the Pleasantness in the data set with odor evaluation panel turned out to be 5.784. Moreover, the Rating result in data set [1] is recorded as “(D)”.

For `CC(=O)c1ccc(O)c(C)c1` [Compound 722, 1-(4-hydroxy-3-methylphenyl)ethanone], in the data set with odor evaluation panel, the Floral was 0.5, the Fruity was determined as 0.469, the Spicy is recorded as 0.062 and the Sweet is recorded as 0.844. In addition, the Pleasantness in the data set on odor evaluation panel was determined as 5.3. In addition, the “Rating (category of commercial prospect)” value in data set [1] is reported as “(A)”.

On to `CCCCc1ccsc1` [Compound 790, 3-butylthiophene], for which, in the data set with odor evaluation panel, the Floral is given as 0.806, the Fruity came to 0.639, the Spicy is listed as 0.25 and the Sweet is listed as 0.944. Also, the “Rating (category of commercial prospect)” value in data set [1] is “(D)”.

As for `CCOC=C(C#N)C#N` [Compound 349, 2-(ethoxymethylidene)propanedinitrile], in the data set on odor evaluation panel, the Floral is 0.625, the Fruity turned out to be 0.188, the Spicy is reported as 0.281 and the Sweet came out at 0.562. The Pleasantness in the data set with odor evaluation panel was determined as 4.794. Moreover, the Rating result in data set [1] is “(D)”.

Consider `O=Cc1ccc([N+](=O)[O-])cc1` [Compound 773, 4-nitrobenzaldehyde], for which, in the data set on odor evaluation panel, the Floral is recorded as 0.688, the Fruity was 0.75, the Spicy is on record as 0.281 and the Sweet amounted to 1.406. Further, the Pleasantness in the data set on odor evaluation panel is recorded as 6.038. In addition, the “Rating (category of commercial prospect)” value in data set [1] is “(D)”.

`CN(C)C(C)(C)CO` [Compound 265, 2-(dimethylamino)-2-methylpropan-1-ol]: in the data set on odor evaluation panel, the Floral was 0.125, the Fruity stood at 0.062, the Spicy is 0.031 and the Sweet came out at 0.344. Moreover, the Pleasantness in the data set with odor evaluation panel is listed as 3.091. In addition, in data set [1], the Rating result is reported as “(D)”.

Regarding `Cc1cnc(C)[nH]1` [Compound 133, 2,5-dimethyl-1H-imidazole], in the data set on odor evaluation panel, the Floral was 0, the Fruity is 0, the Spicy came to 0.094 and the Sweet was found to be 0.312. In addition, the Pleasantness in the data set with odor evaluation panel is given as 6.638. For the same molecule, the Rating entry in data set [1] is recorded as “(D)”.

For `C=CC(=O)OC1CCCCC1` [Compound 344, cyclohexyl prop-2-enoate], in the data set on odor evaluation panel, the Fruity was 0.875, the Spicy amounted to 0.344, the Sweet was 1.375 and the Pleasantness is recorded as 4.994. Also, in data set [1], the Rating entry is on record as “(D)”.

In the case of `C=CC(=O)OCCCCCCCC` [Compound 173, octyl prop-2-enoate], in the data set on odor evaluation panel, the Floral is 0.75, the Fruity is 1.219, the Spicy was determined as 0.094 and the Sweet is listed as 0.781. For the same molecule, in the data set on odor evaluation panel, the Pleasantness is recorded as 5.153. In addition, the Rating entry in data set [1] is recorded as “(D)”.

In the case of `CC(C)(C)OC(=O)CCC(=O)O` [Compound 711], in the data set with odor evaluation panel, the Floral worked out at 0.091, the Fruity is 0, the Spicy amounted to 0 and the Sweet was 0.273. Also, the Pleasantness in the data set on odor evaluation panel turned out to be 5.521. In addition, in data set [1], the “Rating (category of commercial prospect)” value is reported as “(D)”.

Take `COC(=O)c1cc(C)on1` [Compound 140, methyl 5-methyl-1,2-oxazole-3-carboxylate]: in the data set with odor evaluation panel, the Floral came out at 0, the Fruity amounted to 0.406, the Spicy came out at 0.062 and the Sweet amounted to 0.344. Besides, the Pleasantness in the data set on odor evaluation panel amounted to 5.594. The Rating entry in data set [1] is “(D)”.

For `COC1=NCCCCC1` [Compound 827, 7-methoxy-3,4,5,6-tetrahydro-2H-azepine], in the data set on odor evaluation panel, the Floral was 0.118, the Fruity worked out at 0.118, the Spicy came to 0.059 and the Sweet is reported as 0.118. Further, the Pleasantness with odor evaluation panel was determined as 4.985. Further, the “Rating (category of commercial prospect)” value in data set [1] is given as “(D)”.

Consider `COc1cc(C)c(OC)c(OC)c1OC` [Compound 514, 1,2,3,4-tetramethoxy-5-methylbenzene], for which, in the data set with odor evaluation panel, the Floral was determined as 0.412, the Fruity amounted to 0, the Spicy is reported as 0.088 and the Sweet came to 0.412. The Pleasantness in the data set with odor evaluation panel is reported as 5.4. Besides, the Rating result in data set [1] is recorded as “(A)”.

Turning to `CCOC(=O)CC(=O)c1ccncc1` [Compound 502, ethyl 3-oxo-3-pyridin-4-ylpropanoate], in the data set on odor evaluation panel, the Floral came out at 0.312, the Fruity was 0.531, the Spicy is 0.094 and the Sweet amounted to 0.656. The Pleasantness in the data set with odor evaluation panel is given as 5.219. In data set [1], the Rating result is “(A)”.

`CCOC(=O)C1(C#N)CC1` [Compound 424, ethyl 1-cyanocyclopropane-1-carboxylate]: in the data set on odor evaluation panel, the Floral was 0.472, the Fruity is reported as 0.5, the Spicy came out at 0.139 and the Sweet is given as 1.306. For the same molecule, in data set [1], the Rating result was “(A)”.

The values are drawn from patent US20250075147A1, “FRAGRANCE AND FLAVOR COMPOSITIONS COMPRISING NEW FLAVOR AND FRAGRANCE INGREDIENTS” (priority 2023, published 2025).
